In the supplement of paper PMC6411743 one finds NP40-soluble protein abundance data, which are given here for one compound.

Assay in all cases: NP40-soluble protein abundance relative to vehicle (solubility fold change) (ratio); higher = more soluble protein in presence of ATP
Assay [1] deals with T1, E9PFB9 and related entries (UniProt Q5T9S5).
T1 sequence (whole entry): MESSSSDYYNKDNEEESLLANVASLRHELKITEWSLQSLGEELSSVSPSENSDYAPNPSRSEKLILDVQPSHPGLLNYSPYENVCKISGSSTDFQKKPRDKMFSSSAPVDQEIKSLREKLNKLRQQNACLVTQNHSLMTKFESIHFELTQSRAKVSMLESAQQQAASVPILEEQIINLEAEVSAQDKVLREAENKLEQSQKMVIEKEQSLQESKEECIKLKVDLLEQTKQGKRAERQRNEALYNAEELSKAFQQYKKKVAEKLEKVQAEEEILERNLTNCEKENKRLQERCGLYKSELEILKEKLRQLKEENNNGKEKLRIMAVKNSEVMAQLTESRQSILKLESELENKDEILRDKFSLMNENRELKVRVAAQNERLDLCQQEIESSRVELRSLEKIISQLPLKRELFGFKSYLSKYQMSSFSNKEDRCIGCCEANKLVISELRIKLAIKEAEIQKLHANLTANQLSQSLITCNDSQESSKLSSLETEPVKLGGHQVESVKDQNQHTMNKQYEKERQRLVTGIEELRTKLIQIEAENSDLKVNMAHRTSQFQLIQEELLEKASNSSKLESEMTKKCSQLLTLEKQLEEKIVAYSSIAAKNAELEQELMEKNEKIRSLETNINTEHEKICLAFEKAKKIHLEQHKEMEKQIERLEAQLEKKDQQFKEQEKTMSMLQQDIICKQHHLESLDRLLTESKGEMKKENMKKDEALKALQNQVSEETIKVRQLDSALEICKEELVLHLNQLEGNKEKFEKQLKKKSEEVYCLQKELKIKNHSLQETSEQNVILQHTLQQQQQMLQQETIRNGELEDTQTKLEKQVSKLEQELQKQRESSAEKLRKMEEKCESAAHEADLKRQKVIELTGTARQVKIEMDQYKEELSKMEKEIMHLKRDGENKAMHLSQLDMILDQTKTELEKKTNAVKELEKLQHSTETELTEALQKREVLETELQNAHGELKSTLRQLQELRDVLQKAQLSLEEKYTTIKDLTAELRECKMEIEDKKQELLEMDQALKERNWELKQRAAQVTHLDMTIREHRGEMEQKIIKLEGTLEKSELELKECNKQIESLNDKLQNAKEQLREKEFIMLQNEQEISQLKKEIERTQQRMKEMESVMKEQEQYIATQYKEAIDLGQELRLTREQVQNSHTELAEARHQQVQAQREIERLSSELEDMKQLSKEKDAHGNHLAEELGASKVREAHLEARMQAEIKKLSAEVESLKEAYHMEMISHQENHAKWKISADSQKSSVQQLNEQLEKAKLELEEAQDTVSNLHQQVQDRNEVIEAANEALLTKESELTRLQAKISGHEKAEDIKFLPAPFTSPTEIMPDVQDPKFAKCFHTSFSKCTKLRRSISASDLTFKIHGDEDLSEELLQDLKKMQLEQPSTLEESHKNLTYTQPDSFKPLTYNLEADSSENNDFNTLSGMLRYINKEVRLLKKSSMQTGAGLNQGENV
In short, it runs like this: (§1)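 Each value is a fold change relative to the detergent-processed vehicle, calculated per replicate from vsn-normalised intensities. Jurkat crude lysate received eight concentrations (0.1 to 10 mM) for 10 min at room temperature and 3 min at 37 °C, then was solubilised in 0.8% NP40 with benzonase (60 min, 4 °C). The ultracentrifuged supernatant was TMT-labelled and run by LC-MS/MS in three independent experiments.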

Assay [2] addresses T2, E9PK80 and related entries (UniProt Q9NTG7).
T2 sequence (whole entry): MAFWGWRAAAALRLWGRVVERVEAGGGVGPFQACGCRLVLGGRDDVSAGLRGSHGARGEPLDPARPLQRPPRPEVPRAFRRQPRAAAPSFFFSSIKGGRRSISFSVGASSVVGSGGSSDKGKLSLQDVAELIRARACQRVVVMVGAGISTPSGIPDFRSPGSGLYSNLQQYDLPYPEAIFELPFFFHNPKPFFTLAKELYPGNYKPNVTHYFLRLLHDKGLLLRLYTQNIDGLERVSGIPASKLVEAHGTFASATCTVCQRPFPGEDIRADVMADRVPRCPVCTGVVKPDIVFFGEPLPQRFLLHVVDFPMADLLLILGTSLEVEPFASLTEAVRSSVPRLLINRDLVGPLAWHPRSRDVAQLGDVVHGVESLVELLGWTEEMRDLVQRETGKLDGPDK
In short, it runs like this: as §1

In assay [3] the target is T3, E9PNW4 and related entries (UniProt P13987).
T3 sequence (whole entry): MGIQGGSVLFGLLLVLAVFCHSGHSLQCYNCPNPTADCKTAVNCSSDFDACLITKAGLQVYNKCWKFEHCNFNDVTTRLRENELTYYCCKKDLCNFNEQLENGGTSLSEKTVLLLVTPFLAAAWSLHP
Put shortly:
as §1

Assay [4] addresses T4, E9PS17 and related entries (UniProt Q96KG9).
T4 sequence (whole entry): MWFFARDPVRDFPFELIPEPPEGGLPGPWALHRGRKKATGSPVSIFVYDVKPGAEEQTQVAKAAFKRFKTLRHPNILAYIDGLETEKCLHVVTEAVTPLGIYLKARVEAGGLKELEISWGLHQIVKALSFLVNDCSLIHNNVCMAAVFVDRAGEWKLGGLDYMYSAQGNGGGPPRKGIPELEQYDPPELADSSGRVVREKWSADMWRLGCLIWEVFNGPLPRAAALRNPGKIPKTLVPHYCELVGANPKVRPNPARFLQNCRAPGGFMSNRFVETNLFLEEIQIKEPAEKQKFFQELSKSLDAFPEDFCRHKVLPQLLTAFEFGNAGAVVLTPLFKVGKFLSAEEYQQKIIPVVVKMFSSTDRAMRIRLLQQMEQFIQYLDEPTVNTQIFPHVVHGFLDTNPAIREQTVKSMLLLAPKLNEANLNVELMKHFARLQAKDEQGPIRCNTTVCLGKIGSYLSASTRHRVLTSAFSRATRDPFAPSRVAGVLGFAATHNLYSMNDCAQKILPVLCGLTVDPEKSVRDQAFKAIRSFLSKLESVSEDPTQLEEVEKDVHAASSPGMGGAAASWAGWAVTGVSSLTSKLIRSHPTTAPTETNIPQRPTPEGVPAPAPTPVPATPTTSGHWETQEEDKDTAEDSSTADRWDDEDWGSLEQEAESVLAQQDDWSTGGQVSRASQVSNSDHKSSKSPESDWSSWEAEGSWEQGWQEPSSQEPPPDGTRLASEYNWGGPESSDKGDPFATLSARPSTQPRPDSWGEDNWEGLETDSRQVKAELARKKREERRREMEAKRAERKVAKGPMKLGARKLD
Put shortly:
as §1

± gives the standard deviation of the averaged measurements. The list shows a part of the results, in another mix than the full data.

Regarding `Nc1ncnc2c1ncn2[C@@H]1O[C@H](COP(=O)(O)OP(=O)(O)OP(=O)(O)O)[C@@H](O)[C@H]1O` [adenosine triphosphate], the NP40-soluble protein abundance in assay [1] (concentration: 6mM) was determined as 1.03 ± 0.11; in assay [1] (concentration: 8mM), 0.919 ± 0.084; in assay [1] (concentration: 10mM), 1.01 ± 0.12; in assay [2] (concentration: 1mM), 0.94 ± 0.089; in assay [2] (concentration: 2mM), 0.958 ± 0.046; in assay [2] (concentration: 4mM), 0.944 ± 0.055. Further, the NP40-soluble protein abundance stood at 0.965 ± 0.066 in assay [2] (concentration: 6mM); 0.861 ± 0.075 in assay [2] (concentration: 8mM); 0.927 ± 0.023 in assay [2] (concentration: 10mM); 0.968 ± 0.097 in assay [3] (concentration: 1mM); 0.881 ± 0.065 in assay [3] (concentration: 2mM); 0.93 ± 0.072 in assay [3] (concentration: 4mM). Further, the NP40-soluble protein abundance in assay [3] (concentration: 6mM) worked out at 0.978 ± 0.11; in assay [3] (concentration: 8mM), 0.928 ± 0.061; in assay [3] (concentration: 10mM), 0.845 ± 0.13; in assay [4] (concentration: 1mM), 0.978 ± 0.047; in assay [4] (concentration: 2mM), 0.979 ± 0.041; in assay [4] (concentration: 4mM), 0.983 ± 0.016. The NP40-soluble protein abundance in assay [4] (concentration: 6mM) was found to be 0.928 ± 0.053.
